Results: paper PMC5558966
Results are given in words; binding and its absence hold for the method and conditions named. Binding seen in cells or lysates may run through a third protein. Some results given as binding are weak or reduced against the parent protein; the word gives no strength.

Amino acid sequences for entries named in this document (tags omitted).
UniProt Q02821: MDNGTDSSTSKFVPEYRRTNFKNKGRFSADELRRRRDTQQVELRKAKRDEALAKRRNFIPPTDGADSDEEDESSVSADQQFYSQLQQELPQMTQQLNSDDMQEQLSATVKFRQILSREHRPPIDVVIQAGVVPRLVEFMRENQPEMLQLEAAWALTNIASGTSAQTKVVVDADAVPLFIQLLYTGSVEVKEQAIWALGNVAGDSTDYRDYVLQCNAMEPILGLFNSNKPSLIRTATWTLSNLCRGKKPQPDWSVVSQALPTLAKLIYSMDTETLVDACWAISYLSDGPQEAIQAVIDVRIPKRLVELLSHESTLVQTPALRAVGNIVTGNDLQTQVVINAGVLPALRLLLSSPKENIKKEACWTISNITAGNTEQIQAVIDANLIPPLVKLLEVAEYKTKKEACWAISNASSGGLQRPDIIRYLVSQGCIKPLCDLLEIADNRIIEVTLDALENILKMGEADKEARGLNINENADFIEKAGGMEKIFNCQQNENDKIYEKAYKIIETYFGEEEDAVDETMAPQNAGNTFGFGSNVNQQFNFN

Target: Srp1/Kap60 (S. cerevisiae) (UniProt Q02821)
Experiment: co-IP; data not shown; non-radioactive pulse-chase analyses combined with affinity-purification in S. cerevisiae

binding: binds
B1: newly synthesized scMpp10 (protein, UniProt P47083 1-593)
chain: MSELFGVLKSNAGRIILKDPSATSKDVKAYIDSVINTCKNGSITKKAELDEITVDGLDANQVWWQVKLVLDSIDGDLIQGIQELKDVVTPSHNLSDGSTLNSSSGEESELEEAESVFKEKQMLSADVSEIEEQSNDSLSENDEEPSMDDEKTSAEAAREEFAEEKRISSGQDERHSSPDPYGINDKFFDLEKFNRDTLAAEDSNEASEGSEDEDIDYFQDMPSDDEEEEAIYYEDFFDKPTKEPVKKHSDVKDPKEDEELDEEEHDSAMDKVKLDLFADEEDEPNAEGVGEASDKNLSSFEKQQIEIRKQIEQLENEAVAEKKWSLKGEVKAKDRPEDALLTEELEFDRTAKPVPVITSEVTESLEDMIRRRIQDSNFDDLQRRTLLDITRKSQRPQFELSDVKSSKSLAEIYEDDYTRAEDESALSEELQKAHSEISELYANLVYKLDVLSSVHFVPKPASTSLEIRVETPTISMEDAQPLYMSNASSLAPQEIYNVGKAEKDGEIRLKNGVAMSKEELTREDKNRLRRALKRKRSKANLPNVNKRSKRNDVVDTLSKAKNITVINQKGEKKDVSGKTKKSRSGPDSTNIKL
